In EP4310093A1, “AMINO ACID DERIVATIVE, PREPARATION METHOD THEREFOR, AND PHARMACEUTICAL COMPOSITION FOR TREATING HEPATITIS, COMPRISING SAME” (priority 2021, dated 2022):
Some results were stated once for a whole list of compounds, not compound by compound.

Target: T1, NTCP (Homo sapiens, UniProt Q14973)
T1 construct: expressed in transfected cells; host or cells: HepG2-hNTCP-C4
T1 sequence (Q14973 1-349): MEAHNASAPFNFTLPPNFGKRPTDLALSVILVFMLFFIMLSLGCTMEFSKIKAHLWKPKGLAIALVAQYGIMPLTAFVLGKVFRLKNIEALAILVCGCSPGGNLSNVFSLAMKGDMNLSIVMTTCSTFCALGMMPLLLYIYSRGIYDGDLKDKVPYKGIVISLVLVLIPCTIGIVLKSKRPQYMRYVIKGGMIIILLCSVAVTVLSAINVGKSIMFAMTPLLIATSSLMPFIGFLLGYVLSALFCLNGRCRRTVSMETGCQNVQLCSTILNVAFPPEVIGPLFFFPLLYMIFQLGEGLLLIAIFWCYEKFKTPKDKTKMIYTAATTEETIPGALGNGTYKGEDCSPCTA
Assay: Inhibition of the binding between PreS1 (FITC-labelled) and NTCP expressing cell lines, flow cytometry
Settings: for relative fluorescence intensity compared to Comparative Example 1 (LCA): 20 nM PreS1, HepG2-hNTCP-C4 cell line
Procedure: HepG2-hNTCP-C4 cell line, a cell line expressing NTCP, was seeded in a 6 well plate at a density of 2×10^5/well and incubated at 4°C for 30 minutes when the confluency reached 80% after overnight incubation for 2 days. Thereafter, 20 nM PreS 1 (Myr-[…]-Lys(FITC)) and the compounds in Example 1, Examples 38 to 56 or the compound in Comparative Example 1 were treated by diluting in culture media at 4°C at a concentration of 50 µM respectively, and the media was suctioned after 2 hours, followed by washing 3 times with 4°C PBS. In order to take the cells off from the plate, 500 µl of 0.5 mM EDTA PBS solution was treated, and then incubation was performed at 37°C for 15 minutes to check whether the cells fell off through an optical microscope. After taking off the cells by pipetting, the cells were collected in a 1.5 ml tube and centrifuged (4000 rpm, 4°C, 3 min). After suctioning the supernatant, the pellet was washed 3 times with 4°C PBS, and then green fluorescence was measured via flow cytometry. In this case, taurocholic acid (TCA), a compound known as a substrate of NTCP to reduce the entry of HBV or HDV, was used as a positive control group.
In the graph at the top of FIG. 1, black (1) and red (2) indicate a negative control group with no treatment and an HBV-induced group (HBV preS1) solely treated with PreS1, respectively. Blue (HBV preS1+HBV entry inhibitor) (3) is the fluorescence value for each of Examples or Comparative Examples, evaluated that the closer to the negative control group, the more inhibited the binding between PreS1 and the NTCP cell line.
The experimental method was the same as in the Experimental Example 1-1, and 20 nM PreS1 and each compound were treated at 4 concentrations (0.2 µM, 2 µM, 10 µM, 50 µM).
With an expectation that there is a structure-activity relationship among compounds composed of bile acid and amino acids, for each of bile acids in Comparative Example 1 (lithocholic acid, LCA), Comparative Example 2 (ursodeoxycholic acid, UDCA), Comparative Example 3 (cholic acid, CA), Comparative Example 4 (hyodeoxycholic acid, HDCA), Comparative Example 5 (deoxycholic acid, DCA), and Comparative Example 6 (chenodeoxycholic acid, CDCA), an evaluation experiment was conducted on an ability to inhibit the binding between PreS1 and NTCP expressing cell lines, and also for Examples 1 (LCA-Ile) and Example 44 (LCA-Val) as well as the compounds in Example 2 (UDCA-Ile), Example 3 (UDCA-Val), Example 6 (CA-Ile), Example 7 (CA-Val), Example 8 (HDCA-Ile), Example 9 (HDCA-Val), Example 10 (DCA-Ile), Example 11 (DCA-Val), Example 14 (CDCA-Ile), and Example 15 (CDCA-Val) in which bile acid parts (lithocholic acid) of Example 1 (LCA-Ile) and Example 44 (LCA-Val) were substituted with other types of bile acids in Comparative Examples 2 to 6, an evaluation experiment was conducted on an ability to inhibit the binding between PreS1 and NTCP expressing cell lines. The experimental method was the same as in the Experimental Example 1-1, and 18 compounds in the Comparative Examples 1 to 6, Examples 1 to 3, Examples 6 to 11, Examples 14 to 15, and Example 44 were treated at a concentration of 50 µM along with 20 nM PreS 1.
In FIG. 9, an evaluation experiment was conducted to check a degree of inhibiting the binding between PreS1 and NTCP expressing cell lines for compounds in Examples 4 to 5, Examples 12 to 13, Examples 16 to 17, and Comparative Examples 2 (ursodeoxycholic acid, UDCA), Comparative Examples 5 (deoxycholic acid, DCA), and Comparative Examples 6 (chenodeoxycholic acid, CDCA) according to the present disclosure. The experimental method was the same as the Experimental Example 1-1.
In the Experimental Examples 1-4, it was determined whether there is additionally concentration dependence for Example 4 (UDCA-Trp), a compound with good inhibitory ability. […]

[1] = Experimental Example 1-4, method as 1-1

## C[C@H](CCC(=O)N[C@@H](Cc1ccc(O)cc1)C(=O)O)[C@H]1CC[C@H]2[C@@H]3[C@H](O)C[C@@H]4C[C@H](O)CC[C@]4(C)[C@H]3CC[C@]12C [Example 17, (S)-2-((R)-4-((3R,5S,7R,8R,9S,10S,13R,14S,17R)-3,7-dihydroxy-10,13-dimethyl-hexadecahydro-1H-cyclopenta[a]phenanthren-17-yl)pentanamido)-3-(4-hydroxyphenyl)propanoic acid]
[1]
  relative fluorescence intensity in the comparison with Comparative Example 6 (CDCA): low

## C[C@H](CCC(=O)N[C@@H](Cc1c[nH]c2ccccc12)C(=O)O)[C@H]1CC[C@H]2[C@@H]3[C@H](O)C[C@@H]4C[C@H](O)CC[C@]4(C)[C@H]3CC[C@]12C [Example 16, (S)-2-((R)-4-((3R,5S,7R,8R,9S,10S,13R,14S,17R)-3,7-dihydroxy-10,13-dimethyl-hexadecahydro-1H-cyclopenta[a]phenanthren-17-yl)pentanamido)-3-(1H-indol-3-yl)propanoic acid]
[1]
  relative fluorescence intensity in the comparison with Comparative Example 6 (CDCA): low

## C[C@H](CCC(=O)N[C@@H](Cc1ccccc1)C(=O)O)[C@H]1CC[C@H]2[C@@H]3CC[C@@H]4C[C@H](O)CC[C@]4(C)[C@H]3CC[C@]12C [Example 49, (S)-2-((R)-4-((3R,5R,8R,9S,10S,13R,14S,17R)-3-hydroxy-10,13-dimethyl-hexadecahydro-1H-cyclopenta[a]phenanthren-17-yl)pentanamido)-3-phenylpropanoic acid]
50 µM compound
  relative fluorescence intensity compared to Comparative Example 1 (LCA): low

## C[C@H](CCC(=O)N[C@@H](Cc1ccc(O)cc1)C(=O)O)[C@H]1CC[C@H]2[C@@H]3CC[C@@H]4C[C@H](O)CC[C@]4(C)[C@H]3CC[C@]12C [Example 52, (S)-2-((R)-4-((3R,5R,8R,9S,10S,13R,14S,17R)-3-hydroxy-10,13-dimethyl-hexadecahydro-1H-cyclopenta[a]phenanthren-17-yl)pentanamido)-3-(4-hydroxyphenyl)propanoic acid]
0.2 µM, 2 µM, 10 µM, 50 µM compound, 20 nM PreS1
  effect of inhibiting the binding between PreS1 and NTCP expressing cell lines by treatment concentration: concentration dependent
50 µM compound
  relative fluorescence intensity compared to Comparative Example 1 (LCA): low and lower

## C[C@H](CCC(=O)N[C@@H](Cc1c[nH]c2ccccc12)C(=O)O)[C@H]1CC[C@H]2[C@@H]3[C@@H](O)C[C@@H]4C[C@H](O)CC[C@]4(C)[C@H]3CC[C@]12C [Example 4, (S)-2-((R)-4-((3R,5S,7S,8R,9S,10S,13R,14S,17R)-3,7-dihydroxy-10,13-dimethyl-hexadecahydro-1H-cyclopenta[a]phenanthren-17-yl)pentanamido)-3-(1H-indol-3-yl)propanoic acid]
[1]
  relative fluorescence intensity in the comparison with Comparative Example 2 (UDCA): low

## C[C@H](CCC(=O)N[C@@H](Cc1ccc(O)cc1)C(=O)O)[C@H]1CC[C@H]2[C@@H]3[C@@H](O)C[C@@H]4C[C@H](O)CC[C@]4(C)[C@H]3CC[C@]12C [Example 5, (S)-2-((R)-4-((3R,5S,7S,8R,9S,10S,13R,14S,17R)-3,7-dihydroxy-10,13-dimethyl-hexadecahydro-1H-cyclopenta[a]phenanthren-17-yl)pentanamido)-3-(4-hydroxyphenyl)propanoic acid]
[1]
  relative fluorescence intensity in the comparison with Comparative Example 2 (UDCA): low

## C[C@H](CCC(=O)N[C@@H](Cc1ccc(O)cc1)C(=O)O)[C@H]1CC[C@H]2[C@@H]3CC[C@@H]4C[C@H](O)CC[C@]4(C)[C@H]3C[C@H](O)[C@]12C [Example 13, (S)-2-((R)-4-((3R,5R,8R,9S,10S,12S,13R,14S,17R)-3,12-dihydroxy-10,13-dimethyl-hexadecahydro-1H-cyclopenta[a]phenanthren-17-yl)pentanamido)-3-(4-hydroxyphenyl)propanoic acid]
[1]
  relative fluorescence intensity in the comparison with Comparative Example 5 (DCA): the same or lower
